This note sets out measurements from patent US10301203B2, “Chloroperoxidase-catalyzed degradation of pharmaceutical pollutants in wastewater” (THE FLORIDA INTERNATIONAL UNIVERSITY BOARD OF TRUSTEES, priority 2017, dated 2019).

Structures are written as SMILES.

A short description of this series: Elimination of COD and TOC by CPO-catalyzed oxidative degradation. Particulars: CPO-catalyzed degradation alone.

Compound `O=C([O-])Cc1ccccc1Nc1c(Cl)cccc1Cl.[Na+]` [diclofenac, 2-[(2,6-dichlorophenyl)amino]benzeneacetic acid; sodium salt] gave a COD removal of 4.9% and a TOC removal of 25%.

Turning to `COc1ccc2cc(C(C)C(=O)O)ccc2c1` (stereo not shown) [naproxen, 2-(6-methoxynaphthalen-2-yl)propionic acid], the COD removal is listed as 9.1% and the TOC removal was found to be 7.6%.
